Measured values as given in US20230310500A1.
These are yes or no findings as the source states them, for the method shown. Some results given as binding are weak or reduced against the parent protein; the word gives no strength.

Target: T1, EpCAM protein (UniProt P16422)
T1 sequence (looked up): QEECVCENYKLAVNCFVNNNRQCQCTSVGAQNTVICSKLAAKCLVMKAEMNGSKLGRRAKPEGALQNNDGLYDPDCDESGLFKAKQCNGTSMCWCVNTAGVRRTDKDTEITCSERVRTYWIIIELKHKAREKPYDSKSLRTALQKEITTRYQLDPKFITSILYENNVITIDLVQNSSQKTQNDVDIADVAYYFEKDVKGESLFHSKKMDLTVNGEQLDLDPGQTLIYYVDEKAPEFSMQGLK
Test: flow cytometry of transduced T cells stained with EpCAM protein, then anti-EpCAM-FITC; untransduced T cells as reference

B1: chimeric antigen receptor targeting EpCAM (EpCAM-CAR) (protein)
chain: QVQLVQSGAEVKKPGASVKVSCKASGYTFTNYWINWVRQAPGQGLEWIGNIYPSYIYTNYNQEFKDKVTLTVDESTSTAYMELSSLRSEDTAVYYCTRSPYGYDEYGLDYWGQGTTVTVSSGGGGSGGGGSGGGGSDIQLTQSPSSLSASVGDRVTMTCKSSQSLLNTRNQKNYLTWYQQKPGKAPKLLIYWASTRESGVPSRFSGSGSGTDFTLTISSLQPEDFATYYCQNDYVYPLTFGQGTKLEIKIEVMYPPPYLDNEKSNGTIIHVKGKHLCPSPLFPGPSKPFWVLVVVGGVLACYSLLVTVAFIIFWVRSKRSRLLHSDYMNMTPRRPGPTRKHYQPYAPPRDFAAYRSRVKFSRSADAPAYQQGQNQLYNELNLGRREEYDVLDKRRGRDPEMGGKPRRKNPQEGLYNELQKDKMAEAYSEIGMKGERRRGKGHDGLYQGLSTATKDTYDALHMQALPPR
For B1, the binding was “binds”.
